Assay results taken from US20210269531A1 (TSINGHUA UNIVERSITY, published 2021).
Results are given in words; binding and its absence hold for the method and conditions named. Some binding calls cover weakened binding; strength is not graded here. One block for each binder: values may come before it.

Sequences of proteins named here, by UniProt entry; tags and fusion partners are left off. A change or cut given only in a name is not applied to a line headed by its entry. Residues count along the entry.
UniProt Q16620: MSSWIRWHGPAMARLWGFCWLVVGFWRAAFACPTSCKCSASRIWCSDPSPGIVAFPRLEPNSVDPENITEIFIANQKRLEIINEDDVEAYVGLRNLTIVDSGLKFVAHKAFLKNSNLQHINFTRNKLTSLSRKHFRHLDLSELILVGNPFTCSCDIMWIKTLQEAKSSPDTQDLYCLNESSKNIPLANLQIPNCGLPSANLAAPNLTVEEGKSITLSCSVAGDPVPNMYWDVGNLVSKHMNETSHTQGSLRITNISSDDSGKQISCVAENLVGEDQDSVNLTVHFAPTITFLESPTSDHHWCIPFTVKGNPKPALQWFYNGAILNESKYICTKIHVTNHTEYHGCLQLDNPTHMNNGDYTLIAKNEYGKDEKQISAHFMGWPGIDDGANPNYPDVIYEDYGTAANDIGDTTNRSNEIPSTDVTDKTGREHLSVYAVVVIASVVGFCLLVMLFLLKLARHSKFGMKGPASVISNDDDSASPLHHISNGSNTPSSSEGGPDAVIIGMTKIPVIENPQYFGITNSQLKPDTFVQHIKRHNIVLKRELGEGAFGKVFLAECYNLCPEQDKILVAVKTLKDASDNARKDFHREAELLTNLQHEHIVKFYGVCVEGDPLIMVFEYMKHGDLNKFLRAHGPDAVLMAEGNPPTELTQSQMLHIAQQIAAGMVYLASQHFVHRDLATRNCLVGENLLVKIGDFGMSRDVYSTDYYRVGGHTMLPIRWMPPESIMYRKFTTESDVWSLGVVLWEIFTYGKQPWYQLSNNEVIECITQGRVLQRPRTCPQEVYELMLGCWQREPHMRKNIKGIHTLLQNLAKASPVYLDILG
human TrkB (recombinant protein coated in ELISA / immobilised in Biacore): residues 30-430 of Q16620
TrkB full length (FL, WT) conjugated with GFP, expressed in 293T cells: residues 32-822 of Q16620

Legend:
[1] = target: human TrkB (recombinant protein coated in ELISA / immobilised in Biacore) (human) (UniProt Q16620); assay: ELISA, protein coated on plate, antibody at 10 nM, 1 nM or 0.1 nM
[2] = target: human TrkB (recombinant protein coated in ELISA / immobilised in Biacore) (human) (UniProt Q16620); assay: ELISA on coated TrkB, antibody at 10 nM, 1 nM and 0.1 nM
[3] = target: TrkB full length (FL, WT) conjugated with GFP, expressed in 293T cells (UniProt Q16620); assay: immunoprecipitation of GFP-tagged full-length and truncated TrkB from 293T lysates; binding domain

binding [1]: binds | binding [2]: binds | binding [3]: binds
B1: TrkB-agoAb2908 (antibody, IgG1, V domains shown)
VH: QVQLQQSGPELVKPGASVKISCKASGYTFSSSWMNWVKQRPGQGLEWIGRIYPGDGHTNYNGKFKGKATLTADKSSSTAYMQLTSLTSVDSGVYFCARSGYGYGFDCWGQGTTLTVSS
VL: NIVLTQSPASLAVSLGQRATISCRASESVDNYGNSLMHWYQQKPGQPPKLLIYLASNLESGVPARFSGSGSRTDFTLTIDPVEADDAATYYCQQNNEDPPWTFGGGTKLEIKR

binding [1]: binds | binding [2]: binds
B2: TrkB-agoAb303 (antibody, V domains shown)
VH: DVKLVESGGGLVKPGGSLKLSCAASGFTFSSYTMSWVRQTPEKRLEWVATISSGGDYTYFPDSVKGRFTMSRDNAKNALYLQMSSLKSEDTAMYYCTRESGRGDFDYWGQGTTLTVSS
VL: DVLMTQTPLSLPVSLGDQASISCRSSQNIVHSNGNTYLEWYLQKPGQSPNLLIYNVSNRFSGVPDRFSGSGSGTDFTLKISRVEAEDLGVYYCFQGSHFPWTFGGGTKLEIT
notes: Mouse monoclonal antibody

binding [1]: binds | binding [2]: binds
B3: TrkB-agoAb1104 (antibody, IgG1, V domains shown)
VH: QVQLQQSGAELARPGASVKLSCKASGYTFTRYWMQWVKQRPGQGLEWIGAIYPGDGDTRYTQKFKGKATLTADKSSSTAYMQLSSLASEDSAVYYCAGSGLGRAWFTYWGQGTLVTVSA
VL: DIQMTQSPASLSASVGETVTITCRSSENIYSYLAWYQQKQGKSPQLLVYNAKTLAEGVPSRFSGSGSGTQFSLKINSLQPEDFGSYYCQHHYGPPYTFGGGTKLEIK
